These are yes or no findings as the source states them, for the method shown. For some of these results: In cells and extracts the contact can be indirect. Some entries that bind do so weakly or less than the wild type. Tags and fused reporters may be left off the sequences shown.
Legend:
[1] = molecular target: T1, cystin (full-length mouse cystin, yeast two-hybrid fusion) (mouse) (UniProt Q8R4T1); assay: two-hybrid; GAL4 system (… System 3, Clontech); cystin as bait in pGBKT7, necdin as prey in pACT2; growth on SD/-Ade-His-Leu-Trp/X-gal
T1 sequence: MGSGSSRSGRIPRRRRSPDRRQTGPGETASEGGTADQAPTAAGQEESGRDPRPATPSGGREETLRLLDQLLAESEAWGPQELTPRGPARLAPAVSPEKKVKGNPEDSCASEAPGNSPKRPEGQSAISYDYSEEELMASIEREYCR

[2] = molecular target: T2, necdin (full-length, yeast two-hybrid fusion) (mouse) (UniProt P25233); assay: two-hybrid; vector switch: necdin as bait in pGBKT7, cystin as prey in pGADT7; growth on SD/-Ade-His-Leu-Trp with 0, 2.5, 5, 7.5, 10 and 15 mM 3-AT
T2 sequence: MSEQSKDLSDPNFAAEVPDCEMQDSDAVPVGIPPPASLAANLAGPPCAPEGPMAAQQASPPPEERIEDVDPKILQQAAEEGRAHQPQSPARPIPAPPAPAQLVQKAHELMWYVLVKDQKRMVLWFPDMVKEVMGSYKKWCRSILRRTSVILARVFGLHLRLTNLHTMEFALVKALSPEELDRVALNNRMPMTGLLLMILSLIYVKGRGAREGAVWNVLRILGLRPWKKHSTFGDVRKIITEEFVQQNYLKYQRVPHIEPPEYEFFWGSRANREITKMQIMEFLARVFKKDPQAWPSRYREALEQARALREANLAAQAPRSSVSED

[3] = molecular target: T3, HA-cystin (full-length cystin in pCMV-HA) (mouse) (UniProt Q8R4T1); assay: co-IP; pCMV-HA-cystin and pCMV-myc-necdin co-transfected into COS-7 cells; lysate precipitated with HA antibody and protein G agarose at 4 °C; washed with lysis buffer plus 0.2% NP40; blot with myc antibody
T3 sequence: T1 sequence

[4] = molecular target: T4, GST-cystin (full-length cystin in pCMV-GST) (mouse) (UniProt Q8R4T1); assay: pull-down; pCMV-GST-cystin (or GST alone) and pCMV-myc-necdin co-transfected into COS-7 cells; lysate incubated with immobilized glutathione beads overnight at 4 °C; eluted with 100 mM glutathione; blot with myc antibody
T4 sequence: T1 sequence

B1: necdin (full-length, yeast two-hybrid fusion) (protein, UniProt P25233 1-325)
chain: T2 sequence
binding [1]: binds

B2: cystin (full-length mouse cystin, yeast two-hybrid fusion) (protein, UniProt Q8R4T1 1-145)
chain: T1 sequence
binding [2]: binds

B3: myc-necdin (full-length necdin in pCMV-myc) (protein, UniProt P25233 1-325)
chain: T2 sequence
binding [3]: binds | binding [4]: binds
